Here are results for 11 compounds from PubChem BioAssay (NCATS).

SMILES strings stand for the structures. The list shows a part of the results. Further columns of the screen follow, without active or inactive calls. Most of these compounds were active or inconclusive in the main read-out, so they are no random draw. Potencies come from curve fits of mixed quality, noted in brackets.

This assay is described as follows: A High-Content qHTS Against Drug Library for the Identification of Small Molecules that Inhibit DYT1 Early Onset Primary Dystonia-Associated Cell Pathology (AID 1645839). The following applies: HEK293 Flp-In EGFP-delE TorsinA, punctate imaging, 48 h; measured here: cell count cytotoxicity. A digest of the protocol: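 Flp-In T-REx 293 cells with tetracycline-inducible EGFP-delE hTOR1A (WT EGFP-hTOR1A as reference), 800 cells/well; compound added with tetracycline, 48 h at 37 C. Fixed, permeabilized cells imaged; %pathology (punctate TorsinA) primary, cell count counterscreen.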
On the technique in general: Quantitative high-throughput screening tests each substance at several concentrations.
As for `CCOC(=O)c1cc(=O)c2c(OCC(COc3cccc4oc(C(=O)OCC)cc(=O)c34)OC(=O)[C@@H](N)CCCCN)cccc2o1`, the AC50 (commonly the midpoint of the concentration-response curve, whichever way the signal moves) was 17.8 µM [rising, single point]. On to `CN(C)CCOC1=Cc2ccccc2Sc2ccc(Cl)cc21`, for which the AC50 was 31.6 µM [falling, single point].

On to `CCN(CC)CCOc1ccc(C(O)(Cc2ccc(Cl)cc2)c2ccc(C)cc2)cc1` (stereo unspecified), for which the AC50 was 1.41 µM [falling, full curve]. As to `CC(=O)N(CC(O)CO)c1c(I)c(C(=O)NCCO)c(I)c(C(=O)NCC(O)CO)c1I` (stereo unspecified), the AC50 is 15.8 µM [falling, single point]. The figure for `CN1CCCN=C1/C=C/c1cccs1` is 39.8 µM [rising, partial curve, poor fit]; for `CC(O)C(=O)O` (stereo unspecified) it is 10 µM [rising, partial curve, poor fit].

As for `O=c1c(-c2ccccc2)c1-c1ccccc1`, the AC50 was 35.5 µM [falling, single point]. With `CC(=O)N(CC(O)CO)c1c(I)c(C(=O)NCC(O)CO)c(I)c(C(=O)NCC(O)CO)c1I` (stereo unspecified) the figure was 10 µM [falling, partial curve, poor fit]; with `NC1CCN(c2cccc(Cl)n2)CC1`, 12.6 µM [falling, single point].

With `CNCCC(Oc1ccc(C(F)(F)F)cc1)c1ccccc1` (stereo unspecified), the AC50 was 17.8 µM [falling, single point]. The figure for `NC(=O)C1(N2CCCCC2)CCN(CCCN2c3ccccc3CCc3ccc(Cl)cc32)CC1` is 2.24 µM [falling, full curve, poor fit].
